Assay results reported in paper doi:10.1101/2020.10.07.329979.
No constants are given. Whether binding was seen depends on the method and setting. Binding seen in cells or lysates may run through a third protein. A yes stands for co-enrichment or nearness to the bait. Other partners may have been found.

T1: Fibrillin 2 (FBN2), endogenous (Arabidopsis thaliana (endogenous in Arabidopsis leaves)) (UniProt O82291)
T1 sequence: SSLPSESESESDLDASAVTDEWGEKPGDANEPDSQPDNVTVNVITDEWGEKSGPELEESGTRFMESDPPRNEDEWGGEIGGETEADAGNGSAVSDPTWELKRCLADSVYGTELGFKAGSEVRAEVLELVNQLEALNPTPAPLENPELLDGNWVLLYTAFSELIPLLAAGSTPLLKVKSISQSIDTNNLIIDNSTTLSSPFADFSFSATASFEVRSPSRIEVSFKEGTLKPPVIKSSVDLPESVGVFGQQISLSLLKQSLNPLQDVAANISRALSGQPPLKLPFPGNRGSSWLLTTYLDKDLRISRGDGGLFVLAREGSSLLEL

B1: fructose bisphosphate aldolase (FBA) isoform 1, endogenous (enzyme, UniProt Q9SJU4 49-399)
chain: ASAYADELVKTAKTIASPGHGIMAMDESNATCGKRLASIGLENTEANRQAYRTLLVSAPGLGQYISGAILFEETLYQSTTDGKKMVDVLVEQNIVPGIKVDKGLVPLVGSYDESWCQGLDGLASRTAAYYQQGARFAKWRTVVSIPNGPSALAVKEAAWGLARYAAISQDSGLVPIVEPEIMLDGEHGIDRTYDVAEKVWAEVFFYLAQNNVMFEGILLKPSMVTPGAEATDRATPEQVASYTLKLLRNRIPPAVPGIMFLSGGQSELEATLNLNAMNQAPNPWHVSFSYARALQNTCLKTWGGKEENVKAAQDILLARAKANSLAQLGKYTGEGESEEAKEGMFVKGYTY
B2: allene oxide synthase (AOS), endogenous (enzyme, UniProt Q96242 34-518)
chain: SGSETPDLTVATRTGSKDLPIRNIPGNYGLPIVGPIKDRWDYFYDQGAEEFFKSRIRKYNSTVYRVNMPPGAFIAENPQVVALLDGKSFPVLFDVDKVEKKDLFTGTYMPSTELTGGYRILSYLDPSEPKHEKLKNLLFFLLKSSRNRIFPEFQATYSELFDSLEKELSLKGKADFGGSSDGTAFNFLARAFYGTNPADTKLKADAPGLITKWVLFNLHPLLSIGLPRVIEEPLIHTFSLPPALVKSDYQRLYEFFLESAGEILVEADKLGISREEATHNLLFATCFNTWGGMKILFPNMVKRIGRAGHQVHNRLAEEIRSVIKSNGGELTMGAIEKMELTKSVVYECLRFEPPVTAQYGRAKKDLVIESHDAAFKVKAGEMLYGYQPLATRDPKIFDRADEFVPERFVGEEGEKLLRHVLWSNGPETETPTVGNKQCAGKDFVVLVARLFVIEIFRRYDSFDIEVGTSPLGSSVNFSSLRKASF
B3: NAD(P)H dehydrogenase C1, endogenous (enzyme, UniProt Q8GXR9 53-519)
chain: AVTNNSGTTEISDNETAPRTYSWPDNKRPRVCILGGGFGGLYTALRLESLVWPEDKKPQVVLVDQSERFVFKPMLYELLSGEVDVWEIAPRFSDLLTNTGIQFLRDRVKTLLPCDHLGVNGSEISVTGGTVLLESGFKIEYDWLVLALGAESKLDVVPGAMELAFPFYTLEDAIRVNEKLSKLERKNFKDGSAIKVAVVGCGYAGVELAATISERLQDRGIVQSINVSKNILTSAPDGNREAAMKVLTSRKVQLLLGYLVQSIKRASNLEEDEGYFLELQPAERGLESQIIEADIVLWTVGAKPLLTKLEPSGPNVLPLNARGQAETDETLRVKGHPRIFALGDSSSLRDSNGKILPTTAQVAFQEADFTGWNIWAAINNRPLLPFRFQNLGEMMTLGRYDAAISPSFIEGLTLEGPIGHAARKLAYLIRLPTDEHRFKVGISWFAKSAVDSIALLQSNLTKVLSGS
B4: Fibrillin 1a (FBN1a), endogenous (protein, UniProt O81439 56-318)
chain: ATDIDDEWGQDGVERVFASSSTVSVADKAIESVEETERLKRSLADSLYGTDRGLSVSSDTRAEISELITQLESKNPTPAPNEALFLLNGKWILAYTSFVGLFPLLSRRIEPLVKVDEISQTIDSDSFTVQNSVRFAGPFSTTSFSTNAKFEIRSPKRVQIKFEQGVIGTPQLTDSIEIPESVEVLGQKIDLNPIKGLLTSVQDTASSVARTISNQPPLKFSLPSDNTQSWLLTTYLDKDLRISRGDGGSVYVLIKEGSSLLNP
B5: Tic62, endogenous (protein, UniProt Q8H0U5 64-641)
chain: ASSVVTEASPTNLNSKEEDLVFVAGATGKVGSRTVRELLKLGFRVRAGVRSAQRAGSLVQSVKEMKLQNTDEGTQPVEKLEIVECDLEKKDSIQPALGNASVIICCIGASEKEISDITGPYRIDYLATKNLVDAATSAKVNNFILVTSLGTNKFGFPAAILNLFWGVLCWKRKAEEALIESGLNYAIVRPGGMERPTDAYKETHNLTLALDDTLFGGQVSNLQVAELLACMAKNPQLSFSKIVEVVAETTAPLTPIEKLLEKIPSKRPYVPPPKASVATKEVKPVPTKPVTQEPTAPKEDEAPPKEKNVKPRPLSPYASYEDLKPPTSPIPNSTTSVSPAKSKEVDATQVPVEANVVPVPDSTSNVPVVEVKQVEEKKERPLSPYARYENLKPPSSPSPTASSTRKSDSLSPGPTDSDTDKSSTVAKTVTETAVATSVTETSVATSVPETAVATSVTETAAPATSKMRPLSPYAIYADLKPPTSPTPASTGPKEAASVEDNSELPGGNNDVLKTVDGNLNTIPPSTPEAVPVVSSAIDTSLASGDNTAQPKPRPLSPYTMYADMKPPTSPLPSPVTNH
B6: isoform 2 of the ferredoxin-NADP[H] oxidoreductase (FNR2), endogenous (enzyme, UniProt Q8W493 58-369)
chain: ITTETDTPTPAKKVEKVSKKNEEGVIVNRYRPKEPYTGKCLLNTKITADDAPGETWHMVFSHQGEIPYREGQSVGVIADGIDKNGKPHKVRLYSIASSALGDLGNSETVSLCVKRLVYTNDQGETVKGVCSNFLCDLAPGSDVKLTGPVGKEMLMPKDPNATVIMLATGTGIAPFRSFLWKMFFEKHDDYKFNGLAWLFLGVPTTSSLLYQEEFDKMKAKAPENFRVDYAISREQANDKGEKMYIQTRMAQYAAELWELLKKDNTFVYMCGLKGMEKGIDDIMVSLAANDGIDWFDYKKQLKKAEQWNVEVY
B7: Lipoxygenase 2 (LOX2), endogenous (enzyme, UniProt P38418 57-896)
chain: ANIEQEGNTVKEPIQNIKVKGYITAQEEFLEGITWSRGLDDIADIRGRSLLVELISAKTDQRITVEDYAQRVWAEAPDEKYECEFEMPEDFGPVGAIKIQNQYHRQLFLKGVELKLPGGSITFTCESWVAPKSVDPTKRIFFSDKSYLPSQTPEPLKKYRKEELETLQGKNREEVGEFTKFERIYDYDVYNDVGDPDNDPELARPVIGGLTHPYPRRCKTGRKPCETDPSSEQRYGGEFYVPRDEEFSTAKGTSFTGKAVLAALPSIFPQIESVLLSPQEPFPHFKAIQNLFEEGIQLPKDAGLLPLLPRIIKALGEAQDDILQFDAPVLINRDRFSWLRDDEFARQTLAGLNPYSIQLVEEWPLISKLDPAVYGDPTSLITWEIVEREVKGNMTVDEALKNKRLFVLDYHDLLLPYVNKVRELNNTTLYASRTLFFLSDDSTLRPVAIELTCPPNINKPQWKQVFTPGYDATSCWLWNLAKTHAISHDAGYHQLISHWLRTHACTEPYIIAANRQLSAMHPIYRLLHPHFRYTMEINARARQSLVNGGGIIETCFWPGKYALELSSAVYGKLWRFDQEGLPADLIKRGLAEEDKTAEHGVRLTIPDYPFANDGLILWDAIKEWVTDYVKHYYPDEELITSDEELQGWWSEVRNIGHGDKKDEPWWPVLKTQDDLIGVVTTIAWVTSGHHAAVNFGQYGYGGYFPNRPTTTRIRMPTEDPTDEALKEFYESPEKVLLKTYPSQKQATLVMVTLDLLSTHSPDEEYIGEQQEASWANEPVINAAFERFKGKLQYLEGVIDERNVNITLKNRAGAGVVKYELLKPTSEHGVTGMGVPYSISI
B8: fructose bisphosphate aldolase (FBA) isoform 2, endogenous (enzyme, UniProt Q944G9 47-398)
chain: AASSYADELVKTAKTIASPGRGILAMDESNATCGKRLDSIGLENTEANRQAFRTLLVSAPGLGQYVSGAILFEETLYQSTTEGKKMVDVLVEQNIVPGIKVDKGLVPLVGSNNESWCQGLDGLSSRTAAYYQQGARFAKWRTVVSIPNGPSALAVKEAAWGLARYAAISQDSGLVPIVEPEILLDGEHDIDRTYDVAEKVWAEVFFYLAQNNVMFEGILLKPSMVTPGAESKDRATPEQVAAYTLKLLRNRVPPAVPGIMFLSGGQSEVEATLNLNAMNQAPNPWHVSFSYARALQNTCLKTWGGRPENVNAAQTTLLARAKANSLAQLGKYTGEGESEEAKEGMFVKGYTY

Biological target: T1, Fibrillin 2 (FBN2), endogenous (Arabidopsis thaliana (endogenous in Arabidopsis leaves))
Assay: affinity purification with mass spectrometry

binding, binds:
B1
B2
B3
B4
B5
B6
B7
B8

Biological target: T1, Fibrillin 2 (FBN2), endogenous (Arabidopsis thaliana (endogenous in Arabidopsis leaves))
Assay: affinity purification with mass spectrometry
Remark: another data set of the same source

binding, binds:
Acclimation of Photosynthesis to Environment 1 (APE1), endogenous
